Some of the results follow.
The targets below were run with COc1ccc(Cn2ccc3cc(C)c(C(=O)NO)cc32)cc1 (assay: dose-dependent thermal stabilisation call (2D-TPP, DLPTP, 10% FDR) (binary (1 = stabilised)); higher = stabilised by the compound). Details: system: HL-60 intact cells; concentration range 0.04-10 µM.
Protocol: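 2D thermal proteome profiling in intact HL-60 cells treated with BRD-3811 (0, 0.04, 0.29, 2, 10 uM) for 90 min at 37 C, then heated 3 min at one of 12 temperatures (42-63.9 C). Soluble protein was quantified by TMT10 MS. The value is the DLPTP call of the paper: dose-dependent thermal stabilisation over all temperatures at 10% FDR (F-test of a dose-response against a flat model); one experiment, one call per tested protein.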

By UniProt entry, the sequences of proteins in these tests, tags left out. Where a name states a change or a piece, a line headed by the entry shows the natural chain unless it says otherwise.
UniProt P35244: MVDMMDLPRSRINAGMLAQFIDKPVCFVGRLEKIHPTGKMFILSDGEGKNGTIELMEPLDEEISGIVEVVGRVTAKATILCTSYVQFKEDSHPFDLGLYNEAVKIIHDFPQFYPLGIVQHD
UniProt Q9NR31: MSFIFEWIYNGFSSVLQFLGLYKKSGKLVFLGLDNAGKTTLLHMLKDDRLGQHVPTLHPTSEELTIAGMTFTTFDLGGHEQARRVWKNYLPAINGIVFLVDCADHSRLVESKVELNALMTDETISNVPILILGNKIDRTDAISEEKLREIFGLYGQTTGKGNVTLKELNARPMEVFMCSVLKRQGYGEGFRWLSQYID
UniProt Q92600, whole entry: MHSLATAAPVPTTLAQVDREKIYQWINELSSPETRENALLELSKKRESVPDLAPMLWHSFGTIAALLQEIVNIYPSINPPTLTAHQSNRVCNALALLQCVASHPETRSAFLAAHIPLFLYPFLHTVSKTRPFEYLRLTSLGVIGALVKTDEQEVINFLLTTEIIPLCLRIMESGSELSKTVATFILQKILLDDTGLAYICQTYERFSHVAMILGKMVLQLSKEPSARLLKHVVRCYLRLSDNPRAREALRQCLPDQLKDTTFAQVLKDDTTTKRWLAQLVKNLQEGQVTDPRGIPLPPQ
UniProt Q14108: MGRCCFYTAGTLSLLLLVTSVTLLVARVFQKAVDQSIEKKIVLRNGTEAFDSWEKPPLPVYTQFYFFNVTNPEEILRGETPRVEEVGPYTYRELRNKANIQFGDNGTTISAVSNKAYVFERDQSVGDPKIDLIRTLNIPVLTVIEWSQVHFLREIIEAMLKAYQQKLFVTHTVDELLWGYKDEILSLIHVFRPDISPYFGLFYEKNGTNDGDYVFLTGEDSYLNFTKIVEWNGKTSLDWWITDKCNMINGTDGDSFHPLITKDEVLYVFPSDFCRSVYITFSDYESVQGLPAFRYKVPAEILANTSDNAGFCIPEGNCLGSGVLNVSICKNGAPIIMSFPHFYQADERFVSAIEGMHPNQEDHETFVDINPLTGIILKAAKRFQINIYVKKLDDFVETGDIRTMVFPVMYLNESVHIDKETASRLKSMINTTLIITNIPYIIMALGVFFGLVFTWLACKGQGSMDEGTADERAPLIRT
UniProt P10301: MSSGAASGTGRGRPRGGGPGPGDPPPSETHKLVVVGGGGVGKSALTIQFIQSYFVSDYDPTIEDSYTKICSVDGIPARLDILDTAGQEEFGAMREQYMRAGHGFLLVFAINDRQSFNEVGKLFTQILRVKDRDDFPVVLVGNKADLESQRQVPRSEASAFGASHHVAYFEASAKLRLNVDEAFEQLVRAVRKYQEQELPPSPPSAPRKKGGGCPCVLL
UniProt Q6P087: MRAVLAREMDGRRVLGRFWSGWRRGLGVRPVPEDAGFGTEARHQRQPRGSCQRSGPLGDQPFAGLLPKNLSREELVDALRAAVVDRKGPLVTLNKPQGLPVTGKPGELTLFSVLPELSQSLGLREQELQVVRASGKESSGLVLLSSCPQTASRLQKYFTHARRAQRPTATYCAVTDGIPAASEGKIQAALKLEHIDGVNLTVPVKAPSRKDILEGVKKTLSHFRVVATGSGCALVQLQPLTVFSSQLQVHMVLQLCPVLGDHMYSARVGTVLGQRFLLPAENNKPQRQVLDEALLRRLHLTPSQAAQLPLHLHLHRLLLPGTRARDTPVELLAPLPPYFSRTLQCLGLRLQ
UniProt P26447: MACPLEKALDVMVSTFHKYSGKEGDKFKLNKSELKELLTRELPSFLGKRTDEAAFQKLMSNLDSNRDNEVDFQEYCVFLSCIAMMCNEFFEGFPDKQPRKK
UniProt P27694, whole entry: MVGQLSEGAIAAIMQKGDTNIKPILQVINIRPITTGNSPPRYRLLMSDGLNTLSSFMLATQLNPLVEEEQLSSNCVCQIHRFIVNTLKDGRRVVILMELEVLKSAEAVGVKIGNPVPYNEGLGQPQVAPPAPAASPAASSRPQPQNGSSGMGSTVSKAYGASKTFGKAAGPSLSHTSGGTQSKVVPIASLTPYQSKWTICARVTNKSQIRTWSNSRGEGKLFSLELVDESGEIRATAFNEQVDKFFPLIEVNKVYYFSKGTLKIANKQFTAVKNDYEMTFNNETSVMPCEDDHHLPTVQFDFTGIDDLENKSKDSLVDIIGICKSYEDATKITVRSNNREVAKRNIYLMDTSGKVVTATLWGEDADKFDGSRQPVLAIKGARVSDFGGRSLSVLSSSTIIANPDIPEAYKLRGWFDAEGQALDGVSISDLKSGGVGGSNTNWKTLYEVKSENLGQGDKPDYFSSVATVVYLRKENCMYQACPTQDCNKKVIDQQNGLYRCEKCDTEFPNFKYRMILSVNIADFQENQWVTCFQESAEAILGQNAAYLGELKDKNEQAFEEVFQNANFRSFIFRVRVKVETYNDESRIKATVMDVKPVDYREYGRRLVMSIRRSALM
UniProt Q99470: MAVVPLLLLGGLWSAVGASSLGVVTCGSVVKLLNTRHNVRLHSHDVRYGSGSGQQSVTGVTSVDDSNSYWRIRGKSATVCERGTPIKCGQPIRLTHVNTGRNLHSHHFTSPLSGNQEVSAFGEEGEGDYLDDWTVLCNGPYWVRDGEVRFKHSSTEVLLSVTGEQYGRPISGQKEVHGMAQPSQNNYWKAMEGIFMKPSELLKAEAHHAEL
UniProt O94855: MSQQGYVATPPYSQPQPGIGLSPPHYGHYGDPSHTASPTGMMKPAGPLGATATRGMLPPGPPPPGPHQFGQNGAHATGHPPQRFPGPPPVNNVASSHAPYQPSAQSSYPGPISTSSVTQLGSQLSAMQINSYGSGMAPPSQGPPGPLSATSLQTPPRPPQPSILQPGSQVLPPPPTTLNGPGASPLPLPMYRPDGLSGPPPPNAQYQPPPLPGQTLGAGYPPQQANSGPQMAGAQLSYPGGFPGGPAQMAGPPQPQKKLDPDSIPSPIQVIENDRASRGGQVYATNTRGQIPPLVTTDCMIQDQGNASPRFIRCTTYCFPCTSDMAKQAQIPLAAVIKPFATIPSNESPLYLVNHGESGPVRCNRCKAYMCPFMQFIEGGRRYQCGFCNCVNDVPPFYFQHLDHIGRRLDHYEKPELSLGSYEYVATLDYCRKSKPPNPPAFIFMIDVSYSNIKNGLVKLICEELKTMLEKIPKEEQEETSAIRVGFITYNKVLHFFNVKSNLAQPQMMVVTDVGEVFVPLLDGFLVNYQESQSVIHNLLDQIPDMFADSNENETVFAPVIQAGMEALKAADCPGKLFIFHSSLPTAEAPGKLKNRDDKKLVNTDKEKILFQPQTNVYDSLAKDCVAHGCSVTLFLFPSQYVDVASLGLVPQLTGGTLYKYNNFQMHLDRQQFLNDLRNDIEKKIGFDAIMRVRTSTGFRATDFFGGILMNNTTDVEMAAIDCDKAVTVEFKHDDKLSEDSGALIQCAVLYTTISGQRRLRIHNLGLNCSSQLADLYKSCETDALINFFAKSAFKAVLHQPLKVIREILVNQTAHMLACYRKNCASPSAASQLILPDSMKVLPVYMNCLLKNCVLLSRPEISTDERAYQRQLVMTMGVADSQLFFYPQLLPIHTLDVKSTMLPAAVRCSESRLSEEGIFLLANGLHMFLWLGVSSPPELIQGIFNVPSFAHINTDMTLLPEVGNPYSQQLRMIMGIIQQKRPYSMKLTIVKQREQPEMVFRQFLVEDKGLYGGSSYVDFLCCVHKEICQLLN
UniProt Q96T21: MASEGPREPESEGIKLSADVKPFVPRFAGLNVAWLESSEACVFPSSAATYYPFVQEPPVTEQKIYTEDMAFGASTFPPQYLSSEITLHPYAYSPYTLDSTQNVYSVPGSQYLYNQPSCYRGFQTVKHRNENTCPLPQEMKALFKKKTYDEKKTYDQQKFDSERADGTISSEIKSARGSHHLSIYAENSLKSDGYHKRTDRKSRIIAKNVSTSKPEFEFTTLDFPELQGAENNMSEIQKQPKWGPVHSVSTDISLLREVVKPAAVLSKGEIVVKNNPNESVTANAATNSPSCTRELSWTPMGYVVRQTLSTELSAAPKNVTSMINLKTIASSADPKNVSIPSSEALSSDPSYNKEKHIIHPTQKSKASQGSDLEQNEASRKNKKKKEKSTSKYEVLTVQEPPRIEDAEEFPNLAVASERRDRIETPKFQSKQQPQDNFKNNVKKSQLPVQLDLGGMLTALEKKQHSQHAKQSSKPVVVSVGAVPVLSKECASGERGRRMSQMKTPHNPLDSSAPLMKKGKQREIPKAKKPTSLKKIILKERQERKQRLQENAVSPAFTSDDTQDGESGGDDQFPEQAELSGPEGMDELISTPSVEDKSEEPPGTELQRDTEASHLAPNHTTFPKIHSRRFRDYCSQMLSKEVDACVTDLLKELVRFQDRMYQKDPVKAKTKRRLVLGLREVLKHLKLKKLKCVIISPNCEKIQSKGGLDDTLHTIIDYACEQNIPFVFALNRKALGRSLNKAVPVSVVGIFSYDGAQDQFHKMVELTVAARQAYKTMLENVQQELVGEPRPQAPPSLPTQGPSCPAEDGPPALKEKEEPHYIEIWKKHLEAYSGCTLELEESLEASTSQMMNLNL
UniProt Q9H4P4: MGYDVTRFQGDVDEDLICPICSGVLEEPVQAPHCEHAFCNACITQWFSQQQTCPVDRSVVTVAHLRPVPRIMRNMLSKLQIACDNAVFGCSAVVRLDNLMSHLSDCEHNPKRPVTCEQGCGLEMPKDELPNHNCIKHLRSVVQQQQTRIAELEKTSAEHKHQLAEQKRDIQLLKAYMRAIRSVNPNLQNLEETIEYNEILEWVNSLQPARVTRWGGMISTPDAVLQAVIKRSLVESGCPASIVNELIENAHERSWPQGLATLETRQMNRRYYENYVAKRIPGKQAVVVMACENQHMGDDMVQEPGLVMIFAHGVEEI
UniProt Q7LG56, whole entry: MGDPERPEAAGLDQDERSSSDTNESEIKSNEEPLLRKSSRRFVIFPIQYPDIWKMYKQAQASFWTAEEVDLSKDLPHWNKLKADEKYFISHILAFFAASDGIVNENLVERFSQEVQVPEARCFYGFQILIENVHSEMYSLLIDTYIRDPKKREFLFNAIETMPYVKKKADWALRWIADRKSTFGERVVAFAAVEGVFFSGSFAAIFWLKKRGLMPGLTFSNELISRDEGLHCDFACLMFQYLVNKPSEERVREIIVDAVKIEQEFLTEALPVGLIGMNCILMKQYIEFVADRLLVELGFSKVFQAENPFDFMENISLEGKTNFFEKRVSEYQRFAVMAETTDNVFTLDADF
UniProt Q14242: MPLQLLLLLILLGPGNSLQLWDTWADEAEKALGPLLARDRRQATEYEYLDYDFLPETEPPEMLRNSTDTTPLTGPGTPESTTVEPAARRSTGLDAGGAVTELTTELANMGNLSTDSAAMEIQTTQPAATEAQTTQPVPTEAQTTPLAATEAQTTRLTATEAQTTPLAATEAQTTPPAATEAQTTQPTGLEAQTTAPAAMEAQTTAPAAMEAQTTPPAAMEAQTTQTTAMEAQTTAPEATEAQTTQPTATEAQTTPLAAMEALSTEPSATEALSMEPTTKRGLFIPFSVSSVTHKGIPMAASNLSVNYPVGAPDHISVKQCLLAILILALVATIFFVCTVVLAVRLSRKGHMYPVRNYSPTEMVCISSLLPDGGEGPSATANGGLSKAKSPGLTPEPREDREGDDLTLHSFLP
UniProt Q7L523, whole entry: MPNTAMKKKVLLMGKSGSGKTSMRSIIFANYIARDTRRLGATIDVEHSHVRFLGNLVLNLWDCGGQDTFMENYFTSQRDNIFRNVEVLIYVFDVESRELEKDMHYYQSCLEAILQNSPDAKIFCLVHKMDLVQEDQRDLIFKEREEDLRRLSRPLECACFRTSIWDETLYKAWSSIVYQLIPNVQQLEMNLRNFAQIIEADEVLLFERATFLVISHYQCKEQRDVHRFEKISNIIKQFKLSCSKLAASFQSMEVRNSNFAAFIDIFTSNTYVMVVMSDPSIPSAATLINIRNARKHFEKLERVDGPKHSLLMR
UniProt O75396: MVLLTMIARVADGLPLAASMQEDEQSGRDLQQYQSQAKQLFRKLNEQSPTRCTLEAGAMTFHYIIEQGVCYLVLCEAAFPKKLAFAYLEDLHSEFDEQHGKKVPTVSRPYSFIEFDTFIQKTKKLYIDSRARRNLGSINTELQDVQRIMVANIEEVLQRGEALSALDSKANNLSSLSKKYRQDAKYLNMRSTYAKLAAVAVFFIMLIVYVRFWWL
UniProt Q99643: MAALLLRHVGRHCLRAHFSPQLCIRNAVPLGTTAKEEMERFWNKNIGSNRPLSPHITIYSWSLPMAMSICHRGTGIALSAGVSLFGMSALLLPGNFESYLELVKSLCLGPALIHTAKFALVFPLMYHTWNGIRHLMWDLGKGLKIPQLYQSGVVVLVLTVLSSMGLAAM
UniProt Q9Y2Q5, whole entry: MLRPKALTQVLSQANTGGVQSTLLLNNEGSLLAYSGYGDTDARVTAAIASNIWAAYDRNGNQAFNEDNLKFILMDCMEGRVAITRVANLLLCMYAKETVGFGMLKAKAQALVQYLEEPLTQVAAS

Target | dose-dependent thermal stabilisation call
RPL26 (UniProt P61254) | inactive: 0
RPP38 (UniProt P78345) | inactive: 0
RPS2 (UniProt P15880) | inactive: 0
RSL1D1 (UniProt O76021) | inactive: 0
RPA3 (UniProt P35244) | inactive: 0
SAP30BP (UniProt Q9UHR5) | inactive: 0
SAR1A (UniProt Q9NR31) | inactive: 0
RPS7 (UniProt P62081) | inactive: 0
SCD5 (UniProt Q86SK9) | inactive: 0
RUNDC1 (UniProt Q96C34) | inactive: 0
RQCD1 (UniProt Q92600) | inactive: 0
RPS3A (UniProt P61247) | inactive: 0
SCARB2 (UniProt Q14108) | inactive: 0
RRAS (UniProt P10301) | inactive: 0
RPL23A (UniProt P62750) | inactive: 0
RPUSD3 (UniProt Q6P087) | inactive: 0
SEPT11 (UniProt Q9NVA2) | inactive: 0
SEC61A1 (UniProt P61619) | inactive: 0
S100A4 (UniProt P26447) | inactive: 0
RPA1 (UniProt P27694) | inactive: 0

2 entries from above, with tabs.
Target	dose-dependent thermal stabilisation call
SAP30BP (UniProt Q9UHR5)	inactive: 0
SAR1A (UniProt Q9NR31)	inactive: 0

Next records.

Target | dose-dependent thermal stabilisation call
SDF2 (UniProt Q99470) | inactive: 0
RPS26L1 (UniProt Q5JNZ5) | inactive: 0
SEC24D (UniProt O94855) | inactive: 0
SECISBP2 (UniProt Q96T21) | inactive: 0
RNF41 (UniProt Q9H4P4) | inactive: 0
RRM2B (UniProt Q7LG56) | inactive: 0
SCD (UniProt O00767) | inactive: 0
SEC31A (UniProt O94979) | inactive: 0
RPL31 (UniProt P62899) | inactive: 0
SELPLG (UniProt Q14242) | inactive: 0
SACS (UniProt Q9NZJ4) | inactive: 0
RNPEP (UniProt Q9H4A4) | inactive: 0
RRAGA (UniProt Q7L523) | inactive: 0
RPN1 (UniProt P04843) | inactive: 0
SEC22B (UniProt O75396) | inactive: 0
SDHC (UniProt Q99643) | inactive: 0
SAMD9 (UniProt Q5K651) | inactive: 0
ROBLD3 (UniProt Q9Y2Q5) | inactive: 0
RPL37 (UniProt P61927) | inactive: 0
SCFD1 (UniProt Q8WVM8) | inactive: 0
